Laboratory results from publication PMC2848619, “The Combinatorial PP1-Binding Consensus Motif (R/K)x (0,1)V/IxFxx(R/K)x(R/K) Is a New Apoptotic Signature” (PLoS ONE, 2010).

By UniProt entry, the sequences of proteins in these tests, tags left out. Where a name states a change or a piece, a line headed by the entry shows the natural chain unless it says otherwise.
UniProt O14727: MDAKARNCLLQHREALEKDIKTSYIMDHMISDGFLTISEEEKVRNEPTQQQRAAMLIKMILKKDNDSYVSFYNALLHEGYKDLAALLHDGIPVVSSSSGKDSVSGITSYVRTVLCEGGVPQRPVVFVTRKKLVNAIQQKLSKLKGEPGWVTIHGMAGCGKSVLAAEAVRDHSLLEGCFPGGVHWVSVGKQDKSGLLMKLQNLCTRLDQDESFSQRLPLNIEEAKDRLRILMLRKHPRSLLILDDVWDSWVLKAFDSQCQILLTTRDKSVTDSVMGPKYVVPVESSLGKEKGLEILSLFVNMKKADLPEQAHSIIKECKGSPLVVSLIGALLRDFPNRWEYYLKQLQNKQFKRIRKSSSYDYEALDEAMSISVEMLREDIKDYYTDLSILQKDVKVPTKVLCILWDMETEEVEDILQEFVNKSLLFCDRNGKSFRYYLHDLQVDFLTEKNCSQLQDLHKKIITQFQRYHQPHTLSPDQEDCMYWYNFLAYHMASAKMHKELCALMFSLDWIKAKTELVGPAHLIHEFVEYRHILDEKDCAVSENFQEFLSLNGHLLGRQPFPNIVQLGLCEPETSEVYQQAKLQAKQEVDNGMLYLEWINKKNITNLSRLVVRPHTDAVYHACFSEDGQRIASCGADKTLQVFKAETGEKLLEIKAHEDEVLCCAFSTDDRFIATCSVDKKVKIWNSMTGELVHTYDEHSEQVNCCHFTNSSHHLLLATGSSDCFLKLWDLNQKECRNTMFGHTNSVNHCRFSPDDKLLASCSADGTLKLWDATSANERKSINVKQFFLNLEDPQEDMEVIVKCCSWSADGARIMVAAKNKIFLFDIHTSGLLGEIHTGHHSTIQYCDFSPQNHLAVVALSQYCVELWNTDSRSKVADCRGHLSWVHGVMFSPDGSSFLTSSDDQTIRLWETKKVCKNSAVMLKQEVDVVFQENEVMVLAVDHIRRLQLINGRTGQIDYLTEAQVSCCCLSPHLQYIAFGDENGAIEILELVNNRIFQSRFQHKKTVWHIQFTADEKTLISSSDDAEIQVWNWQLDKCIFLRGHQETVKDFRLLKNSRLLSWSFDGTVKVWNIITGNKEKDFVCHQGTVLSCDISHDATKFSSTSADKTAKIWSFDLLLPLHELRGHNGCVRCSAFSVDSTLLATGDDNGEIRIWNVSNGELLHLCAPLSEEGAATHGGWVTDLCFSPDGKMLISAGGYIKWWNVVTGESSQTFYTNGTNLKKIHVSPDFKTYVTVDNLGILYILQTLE

Molecular target: T1, APAF-1_(122–131), within cellulose-bound dodecapeptides of APAF-1 (human) (UniProt O14727)
T1 sequence (peptide): RPVVFVTRKK
Assay: peptide or protein array; overlapping dodecapeptides of APAF-1 119-141 spot-synthesised on a cellulose membrane, blocked with SuperBlock, incubated with purified PP1c, detected with anti-PP1c antibody, peroxidase-conjugated secondary antibody and ECL; both purified

Substance: purified PP1c (enzyme)
- binding: binds

These are yes or no findings as the source states them, for the method shown. A result given as binding can be weak or reduced; the word gives no strength.
